{"source": "PubChem BioAssay AID1259254 (NCATS, 2017)", "assay": "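Genome-wide screen for genes that prevent DNA re-replication in cancer cells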 (primary screen)", "cell system": "human HCT116 colorectal cancer cells", "reagent": "single siRNA against human genes", "time to read-out": "3 days", "measurement": "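Nuclei stained with Hoechst and imaged; cell-cycle phase assigned by DNA content; G2 share scaled per plate, non-targeting siRNA 0%, GMNN siRNA 100%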", "direction": "G2 robust z-score: higher = more G2 cells, more excess DNA replication", "rule for the call": "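An siRNA counts as active if its G2 robust z-score lies at least 5 MADs above the screen median; here such calls match roughly 38% of GMNN control or more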", "note": "In all, the deposit lists about 59,000 reagents; below is a part drawn at random. About 1,550 of them (2.6%) count as active. 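G2 share is only a proxy for re-replication; each gene was hit by three separate siRNAs, and active genes were retested.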 Unmarked entries are inactive. The numbers tell different reagents against one gene apart. Not all columns of the deposit are shown. Not stated in the record: the amount of reagent."}
{"gene symbol":"NXPE2","siRNA no.":1,"G2 robust z-score":-0.499}
{"gene symbol":"NXPE2","siRNA no.":2,"G2 robust z-score":0.649}
{"gene symbol":"NXPE2","siRNA no.":3,"G2 robust z-score":-0.0229}
{"gene symbol":"KDM4B","siRNA no.":1,"G2 robust z-score":-1.67}
{"gene symbol":"KDM4B","siRNA no.":2,"G2 robust z-score":-0.407}
{"gene symbol":"KDM4B","siRNA no.":3,"G2 robust z-score":-0.288}

2 entries from above, set out differently:
{"gene symbol": "KDM4B", "siRNA no.": 1, "G2 robust z-score": -1.67}
{"gene symbol": "KDM4B", "siRNA no.": 2, "G2 robust z-score": -0.407}

The list goes on.
{"gene symbol":"SLC28A3","siRNA no.":1,"G2 robust z-score":1.04}
{"gene symbol":"SLC28A3","siRNA no.":2,"G2 robust z-score":1.15}
{"gene symbol":"SLC28A3","siRNA no.":3,"G2 robust z-score":-0.32}
{"gene symbol":"ADGRG6","siRNA no.":1,"G2 robust z-score":-1.69}
{"gene symbol":"ADGRG6","siRNA no.":2,"G2 robust z-score":-0.0615}
{"gene symbol":"ADGRG6","siRNA no.":3,"G2 robust z-score":4.86}
